This passage reports binding results from article PMC7261011.

Chains of the proteins cited; added tags and fusions are not shown. Lines headed by an entry give the natural chain unless they say otherwise; changes in a name come on top.
UniProt Q9D9P8: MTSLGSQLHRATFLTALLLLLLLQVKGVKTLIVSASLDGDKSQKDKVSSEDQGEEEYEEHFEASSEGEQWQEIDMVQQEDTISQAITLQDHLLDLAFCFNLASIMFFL

Results are given in words; binding and its absence hold for the method and conditions named. In cells and extracts the contact can be indirect. Binding can be weak; no strength is given.

This assay addresses mouse SOF1 (sperm-oocyte fusion required 1) expressed in HEK293T cells (SOF1-1D4) (mouse) (UniProt Q9D9P8). Briefly: co-IP; lysates of HEK293T cells coexpressing IZUMO1 and each of the other proteins; antibody-conjugated Protein A/G magnetic beads, 1 h at 4 °C; lysis buffer 50 mM Tris pH 7.5, 150 mM NaCl, 1% Triton X-100, 10% glycerol, 1 mM DTT; Western blot. Background: A western blot detects proteins with antibodies after separation by electrophoresis.

B1: recombinant mouse IZUMO1 expressed in HEK293T cells (IZUMO1-mCherry) (protein, UniProt Q9D9J7 22-397)
chain: CIKCDQFVTDALKTFENTYLNDHLPHDIHKNVMRMVNHEVSSFGVVTSAEDSYLGAVDENTLEQATWSFLKDLKRITDSDLKGELFIKELLWMLRHQKDIFNNLARQFQKEVLCPNKCGVMSQTLIWCLKCEKQLHICRKSLDCGERHIEVHRSEDLVLDCLLSWHRASKGLTDYSFYRVWENSSETLIAKGKEPYLTKSMVGPEDAGNYRCVLDTINQGHATVIRYDVTVLPPKHSEENQPPNIITQEEHETPVHVTPQTPPGQEPESELYPELHPELYPELIPTVAQNPEKKMKTRLLILLTLGFVVLVASIIISVLHFRKVSAKLKNASDEVKPTASGSKSDQSLSQQMGLKKASQADFNSDYSGDKSEATEN
Consider B1, for which the binding entry was “binds”.
